Reference: PubChem BioAssay AID1259415 (National Center for Advancing Translational Sciences (NCATS), 2018)
Among all 410,000 compounds or so, about 18,000 (4.4%) were called active. This list was built around the results that the source calls inconclusive (neither active nor inactive); the mix of calls is not that of the screen. Cut-off read from the data, not from the text of the source: active = activity change below about -60%; inconclusive = no clear call, values can overlap the other calls; inactive = above about -39%.

Assay: qHTS Assay for inhibitors of the human cytomegalovirus (HCMV)
Details: HFF cells, HCMV-luciferase reporter, 72 h; at 57.5 µM; active compounds read low
Method in brief: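 HFF cells seeded 16 h at 37C, treated with compounds, infected with luciferase-reporter HCMV at MOI 1 PFU/cell; luciferase read at 72 h post infection, normalized to buffer-only and Salinomycin controls.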
% is set by controls: 0 for no effect and ±100 for the full control effect.

Row | SMILES | activity change, negative = inhibition
1 | CN(C)C(=O)COc1ccc(S(=O)(=O)c2ccc(OCC(=O)N(C)C)cc2)cc1 | inactive: 31%
2 | O=C(CSc1nc(=O)[nH]c2c1CCC2)NCc1ccc(Cl)cc1 | inactive: -1.86%
3 | CNS(=O)(=O)c1cc(-c2nnc(Nc3ccc(NC(C)=O)cc3)c3ccccc23)ccc1C | active: -65.8%
4 | Nc1c(C(=O)Nc2ccc(OC(F)(F)F)cc2)sc2nc3c(cc12)N1CCC3CC1 | active: -78.4%
5 | CCOc1cc(/C=N/NC(=O)Cc2ccc(C(F)(F)F)cc2[N+](=O)[O-])ccc1O | active: -60.7%
6 | CC(C)NC(=O)CSc1nc2ccccc2c(=O)n1Cc1ccc(C(=O)NC(C)C)cc1 | inactive: 2.54%
7 | CC(=O)Nc1ccc(Nc2nc(C(F)(F)F)nc3c2nnn3Cc2ccccc2Cl)cc1 | active: -72.3%
8 | O=C1CN(C(=O)CN2CCOCC2)C(c2ccccc2)c2cc(Br)ccc2N1 (stereo unspecified) | inconclusive: -53.4%
9 | NS(=O)(=O)c1ccc(CCNC(=O)c2ccc(Cn3c(=O)[nH]c4ccccc4c3=O)cc2)cc1 | inconclusive: -44.9%
10 | CCN1CCN(c2ncnc3c2sc2nc(N4CCOCC4)c4c(c23)CCC4)CC1 | inactive: 30.2%
11 | O=C1/C(=C\c2cccnc2)SC(=S)N1c1ccc(F)cc1 | inconclusive: -49.2%
12 | COC(=O)c1cn(-c2nc(C)c3c(n2)CCC3)nn1 | inconclusive: -45.5%
13 | CC(=O)Nc1ccc(NC(=O)c2cc(-c3cc(C)cc(C)c3O)n[nH]2)cc1 | inconclusive: -54.9%
14 | CCN(C(=O)C1CCN(c2nc(-c3ccc(OC)cc3)no2)CC1)c1ccc(OC)cc1 | active: -73%
15 | Cc1c(-c2ccc(Cl)cc2)c(=O)oc2c(CN3CCOCC3)c(O)ccc12 | inconclusive: -45.5%
16 | O=C(CCN1CCOCC1)c1ccc2c(c1)OCCO2 | inactive: -26.3%
17 | Cc1ccc(-c2nn(-c3ccccc3)cc2/C=C(\C#N)C(=O)NCc2ccccc2)cc1 | inactive: 2.04%
18 | COc1cc(NC(=O)c2ccc3c(c2)OCO3)ccc1NC(=O)c1cccs1 | inconclusive: -41.4%
19 | CC(CNC(=O)CCCn1ncn2c(cc3occc32)c1=O)c1ccccc1 (stereo unspecified) | inconclusive: -50.6%
20 | Cc1c(C#N)sc(C(N)=O)c1C | inconclusive: -44.3%
21 | Cc1cc(C(=O)CSc2nc3ccccc3[nH]2)c(C)n1CC1CCCO1 (stereo unspecified) | active: -98.9%
22 | O=C(N/N=C/c1cccs1)c1cccc(S(=O)(=O)Nc2ccc(Cl)cc2)c1 | active: -64.7%
23 | CCOC(=O)C1(Cc2ccccc2C)CCCN(C(=O)c2ccc(C(C)=O)s2)C1 (stereo unspecified) | inactive: -16%
24 | CCCN=C(Nc1ccc(Cl)cc1)c1cccnc1 | inconclusive: -40.8%
25 | Cc1nnc(SCC(=O)NC23CC4CC(CC(C4)C2)C3)s1 | inconclusive: -59.1%
26 | CCOC(=O)N1CCN(C(=O)CCCCCn2c(=S)[nH]c3cc4c(cc3c2=O)OCO4)CC1 | inconclusive: -49.7%

Row | SMILES | activity change, negative = inhibition
27 | COc1ccccc1CCn1c(N)cc(=O)[nH]c1=O | inconclusive: -45.5%
28 | O=C(c1ccco1)N1CCN(C(=O)c2cc(-c3ccccn3)nc3ccccc23)CC1 | inactive: 52.5%
29 | Cc1cc(SCC(=O)N/N=C/c2ccc(O)cc2O)c(C)cc1Br | active: -83.4%
30 | COC(=O)c1ccc(CSc2nnc(Nc3ccc(OC)cc3)s2)o1 | inactive: 16.2%
31 | CCOC(=O)[C@H]1[C@H]2COc3ccc(Br)cc3[C@@H]2N2C(=O)c3ccc(Cl)cc3NC(=O)[C@@]12C | inactive: -16.5%
32 | CSc1ncccc1C(=O)OCC(=O)c1ccc(C)s1 | inconclusive: -42%
33 | Cc1cccc(C(=O)NCC(=O)N2CCN(S(=O)(=O)c3ccc4c(c3)OCCO4)CC2)c1 | inactive: -23.2%
34 | CCn1c(COc2ccccc2)nc2ccccc21 | inactive: -16%
35 | CCc1ccc(-n2c(N3CCN(c4cccc(C)c4C)CC3)nc3ccccc3c2=O)cc1 | inconclusive: -58.5%
36 | COC(=O)c1cc(NC(=O)c2ccc(C)cc2)c(=O)oc1C | inconclusive: -42%
37 | O=C(Nc1ccc2oc(=O)ccc2c1)c1ccc(-c2cccc(Cl)c2)o1 | active: -64.4%
38 | COc1ccccc1N1CCN(C(=O)C2CCCN(S(=O)(=O)c3ccc4c(c3)oc(=O)n4C)C2)CC1 (stereo unspecified) | inconclusive: 0%
39 | Cc1cc(C(=O)NC2CCCCC2)c(C)n1-c1ccc(F)cc1 | inactive: 65.8%
40 | CN1C(=O)C(CCC(N)=O)NC1=S (stereo unspecified) | inactive: -30.5%
41 | Cc1ccc2c(c1)Oc1ccc(NC(=O)CCCl)cc1C(=O)N2 | active: -90.5%
42 | O=C(N1CCN(c2ccccc2)CC1)C12CC3CC(CC(C3)C1)C2 | inconclusive: -42.8%
43 | O=C(Nc1ccc2c(c1)OCCO2)N1CCN(c2ccc(F)cc2)CC1 | inconclusive: -52%
44 | O=C1S/C(=C\C=C\c2ccco2)C(=O)N1c1ccc(O)cc1 | inconclusive: -57.5%
45 | CCc1nnc(NC(=O)CSc2nnc(CNC(=O)c3cc(OC)c(OC)c(OC)c3)o2)s1 | inactive: -13.1%
46 | COc1cccc(CN2CCNC(=O)C2CC(=O)NCCn2cccn2)c1OC (stereo unspecified) | inactive: 22.6%
47 | O=C(Nc1ccc2c(c1)OCO2)C1CCN(S(=O)(=O)c2ccc3c(c2)OCCO3)CC1 | inconclusive: -41.2%
48 | S=C(NCC1(c2ccccc2)CCCC1)Nc1ccccc1 | active: -96.8%
49 | CCN(CC(=O)Nc1ccccc1OC)C(=O)C1CCCC1 | inconclusive: -55%
50 | COc1ccc(S(=O)(=O)N2CCOCC2)cc1NC(=O)CN(C)Cc1c(F)cccc1Cl | inconclusive: -52.3%
51 | COc1ccc(OCCSc2nnc(-c3ccc(OC)cc3)n2N)cc1 | inconclusive: -47%
52 | Cc1noc(C)c1NC(=O)N(C)C[C@@H]1Oc2c(NC(=O)c3ccncc3)cccc2C(=O)N([C@H](C)CO)C[C@@H]1C | inactive: -28.2%

Looked up one by one from the list above (three):
Row | SMILES | activity change, negative = inhibition
30 | COC(=O)c1ccc(CSc2nnc(Nc3ccc(OC)cc3)s2)o1 | inactive: 16.2%
34 | CCn1c(COc2ccccc2)nc2ccccc21 | inactive: -16%
29 | Cc1cc(SCC(=O)N/N=C/c2ccc(O)cc2O)c(C)cc1Br | active: -83.4%

(more compounds)

Row | SMILES | activity change, negative = inhibition
53 | Cc1ccc(NC(=O)c2ccc([N+](=O)[O-])o2)cc1C | inconclusive: -56.5%
54 | COC(=O)[C@@]1(Sc2ccc(OC)cc2)CC(=O)N(c2ccc(OC(C)C)cc2CO)[C@@H]1c1ccc(OC(C)C)c(OC)c1 | inactive: 18.5%
55 | CCOC(=O)C1(c2ccccc2)CCN(CC(=O)c2ccc(NC(C)=O)cc2)CC1 | inconclusive: -40%
56 | CCn1c(SC)nnc1-c1sc2cc(Cl)ccc2c1Cl | inconclusive: -54.7%
57 | S=C(NCCc1ccccc1)Nc1ccccc1Cl | active: -63.8%
58 | COc1nc(-c2cnccn2)sc1C | inconclusive: -41%
59 | O=C(c1ccc2c(c1)N(Cc1ccccc1)CCS2)N1CCC2(CC1)OCCO2 | inconclusive: -54.1%
60 | O=c1c2cc(N3CCOCC3)ccc2[nH]c(=S)n1CCCN1CCCCCC1 | inactive: 11.2%
61 | Cc1ccc2occ(/C=N/NC(=O)c3ccccc3O)c(=O)c2c1 | active: -83.5%
62 | CCN(CC)CCNC(=O)CNC(=S)N(CCCN1CCOCC1)Cc1cccs1 | inactive: -34.7%
63 | O=[N+]([O-])c1ccc(-c2ccc(/C=N/Nc3nc(N4CCCC4)nc(N4CCCC4)n3)o2)cc1 | inactive: -33.6%
64 | CC(OC(=O)CCc1nc2ccccc2c(=O)[nH]1)C(=O)c1ccc(C(C)(C)C)cc1 (stereo unspecified) | inconclusive: -50.3%
65 | O=C(NCCS(=O)(=O)N1CCN(c2cccc(Cl)c2)CC1)c1cc(=O)c2ccccc2o1 | inconclusive: -45.5%
66 | COC(=O)Cc1nnn2c1[C@@H](C)[C@@H](c1ccccc1Br)OC[C@H](C)C2 | inconclusive: -41.8%
67 | CCOc1ccc(-c2cc(C(=O)OC)[nH]n2)cc1 | inactive: -7.83%
68 | CCc1cccc(NC(=O)CC2Oc3ccc(C)cc3NC2=O)c1 (stereo unspecified) | inactive: 29.3%
69 | N#Cc1c(N)n(-c2ccccc2N)c2nc3ccccc3nc12 | inconclusive: -54.4%
70 | O=C(c1ccc(CNc2c(N3CCCC3)c(=O)c2=O)cc1)N1CC=C(c2ccccc2)CC1 | inconclusive: -60%
71 | COc1cc(NC(=O)Cc2ccc(OC)c(S(=O)(=O)N3CCOCC3)c2)c(OC)cc1Cl | inactive: 4.81%
72 | CN1CCC(Oc2ccccc2Sc2ccccc2)CC1 | active: -76.7%
73 | Cn1cccc1/C=N/NC(=O)CSc1nc2ccccc2[nH]1 | inconclusive: -48.1%
74 | Cc1ccc(Nc2nc(N)nc(CSc3nnc(-c4ccncc4)o3)n2)cc1 | inactive: 36.5%
75 | Cc1ccc(NC(=S)NC(C)CCc2ccccc2)cc1C (stereo unspecified) | active: -71.4%
76 | COc1ccc(CCNC(=S)Nc2ccc(OC)cc2)cc1 | active: -66.1%
77 | c1ccc2c(c1)ncn2-c1ncnc2sc3c(c12)CCCC3 | active: -63.7%
78 | Cc1cccc(N2CCN(c3ncnc4c3c(-c3ccccc3)cn4-c3ccccc3)CC2C)c1 (stereo unspecified) | inconclusive: -50%

Taken from above.
activity change, negative = inhibition with c1ccc2c(c1)ncn2-c1ncnc2sc3c(c12)CCCC3 reads active: -63.7%
activity change, negative = inhibition with CCN1CCN(c2ncnc3c2sc2nc(N4CCOCC4)c4c(c23)CCC4)CC1 reads inactive: 30.2%

Next records follow:

Row | SMILES | activity change, negative = inhibition
79 | Cc1c(Cl)c(=O)oc2cc(OCC(=O)NCc3cccs3)ccc12 | inconclusive: -43.1%
80 | CN(NS(=O)(=O)c1ccc(Cl)cc1)c1ncc(C(F)(F)F)cc1Cl | inconclusive: -57.1%
81 | O=C(N/N=C/c1cccc(OCc2ccccc2)c1)c1ccc(Br)cc1 | inconclusive: -49.8%
82 | COC(=O)C[C@H]1C[C@H]2c3cc(NC(=O)C4CCC4)ccc3O[C@H]2[C@H](CO)O1 | inactive: -21.2%
83 | CSc1ncc(C(=O)NCCCc2ccccc2)c(C)n1 | inconclusive: -51.3%
84 | O=C(NCCC1=CCCCC1)c1[nH]c(C(F)(F)F)nc1-c1ccccc1 | inconclusive: -40.4%
85 | COC(=O)c1c(C)[nH]c(C(=O)CSc2ncnc3sc(-c4ccccc4)cc23)c1C | inconclusive: -57%
86 | Cc1ccc(N(C(=O)Cn2nnc3ccccc32)C(C(=O)NCc2ccccc2)c2ccccn2)cc1 (stereo unspecified) | inconclusive: -43.1%
87 | CCN(CC)CCC(=O)N1c2ccccc2Sc2ccc(Cl)cc21 | inconclusive: -42.2%
88 | CC(C)c1nc(SCC(=O)N2c3ccccc3CC2C)c2ccccc2n1 (stereo unspecified) | inconclusive: -40.9%
89 | CCOC(=O)CC1(CCc2ccccc2)Oc2ccccc2N1S(=O)(=O)c1ccc(C)cc1 (stereo unspecified) | inconclusive: -54.4%
90 | O=C(CN1C(=O)C2C3c4ccccc4C(c4ccccc43)C2C1=O)Nc1ccccc1C(=O)O (stereo unspecified) | inconclusive: -51.1%
91 | O=C(NC(=S)NNC(=O)c1ccccc1O)c1ccc(F)cc1 | inactive: 69.3%
92 | CCN(Cc1ccccc1)C(=O)Cn1c(=O)oc2cc(S(=O)(=O)N3CCCCCC3)ccc21 | inconclusive: -50.9%
93 | COc1ccc(N(C)S(=O)(=O)c2ccc(C)cc2)c([N+](=O)[O-])c1 | inconclusive: -44.8%
94 | Cc1ccc(NC(=O)CNCC2CCCCC2)cc1S(=O)(=O)N(C)C | inconclusive: -44.2%
95 | O=C(Cc1ccc(Br)cc1)NNC(=O)c1cccs1 | inconclusive: -49.1%
96 | Cc1ccc2[nH]c(C)c(CCNC(=O)NC3CCCCC3)c2c1 | inconclusive: -43.4%
97 | CCOC(=O)N/N=C\C=C\c1ccco1 | inconclusive: -49.3%
98 | COc1cc(SC)ccc1C(=O)NC1CCCc2ccccc21 (stereo unspecified) | inconclusive: -52.9%
99 | CCCCn1nnnc1C(c1cc2ccccc2o1)N(CCN(C)C)Cc1ccccc1 (stereo unspecified) | inactive: -4.88%
100 | CC(Oc1ccccc1)c1ccnc2nc(N3CCOCC3)nn12 (stereo unspecified) | inactive: -5.96%
101 | CCN(CC)c1ccc(S(=O)(=O)Nc2cc(Cl)ccc2Cl)cc1NC(=S)NC(=O)C1CCCC1 | inconclusive: -46.6%
